# Data published in publication PMC7947762.
# Amino acid sequences for entries named in this document (tags omitted).
# UniProt Q8DLC1: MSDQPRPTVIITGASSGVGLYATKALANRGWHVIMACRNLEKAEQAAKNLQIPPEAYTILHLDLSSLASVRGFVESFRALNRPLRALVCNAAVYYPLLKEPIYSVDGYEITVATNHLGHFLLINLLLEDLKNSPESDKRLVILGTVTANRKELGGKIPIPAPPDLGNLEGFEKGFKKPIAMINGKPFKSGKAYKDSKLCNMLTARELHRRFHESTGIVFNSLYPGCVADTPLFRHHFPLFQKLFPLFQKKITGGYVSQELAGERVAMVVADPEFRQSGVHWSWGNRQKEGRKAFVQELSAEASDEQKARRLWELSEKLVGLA
# These are yes or no findings as the source states them, for the method shown.
# Biological target: light-dependent protochlorophyllide oxidoreductase of Thermosynechococcus elongatus BP-1 (Thermosynechococcus elongatus BP-1) (UniProt Q8DLC1)
# Experiment: SAXS; apo protein in solution, four samples of ~0.5, 1, 3 and 5 mg/ml, 10 °C, 20 mM Tris/HCl pH 7.5, 500 mM NaCl, 20% (v/v) glycerol; molecular mass estimated from Porod volume and ab initio models and compared with the theoretical mass; both purified
substance,measurement,value
light-dependent protochlorophyllide oxidoreductase of Thermosynechococcus elongatus BP-1 (from UniProt Q8DLC1 1-322) (enzyme),binding,"no binding (tested: ∼0.5, 1, 3, and 5 mg ml^−1)"
